Paper PMC12767443
No constants are given. Whether binding was seen depends on the method and setting. In cells and extracts the contact can be indirect. Some entries that bind do so weakly or less than the wild type.

Target: T1, translocase of outer mitochondrial membrane 40 (human (endogenous in HuCCT1)) (UniProt O96008)
T1 sequence: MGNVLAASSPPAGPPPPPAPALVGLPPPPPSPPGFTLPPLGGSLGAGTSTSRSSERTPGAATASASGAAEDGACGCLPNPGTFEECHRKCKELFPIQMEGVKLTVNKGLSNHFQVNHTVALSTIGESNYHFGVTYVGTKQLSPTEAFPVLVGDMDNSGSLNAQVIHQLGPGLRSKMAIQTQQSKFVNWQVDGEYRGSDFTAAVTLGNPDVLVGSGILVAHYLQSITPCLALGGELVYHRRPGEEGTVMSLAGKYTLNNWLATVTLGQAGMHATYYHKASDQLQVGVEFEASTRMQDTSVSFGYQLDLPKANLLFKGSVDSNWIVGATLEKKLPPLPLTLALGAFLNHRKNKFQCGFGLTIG
Experiment: co-IP; Pierce Classic Magnetic Bead IP/Co-IP kit; lysates of HuCCT1 cells transfected with KD-NC or KD-NKILA; immunoprecipitating antibodies (control IgG, anti-MTX1, anti-TOMM40) overnight at 4°C, magnetic beads 1 h at room temperature; Western blot for MTX1 and TOMM40; NKILA silencing reduced the binding

B1: metaxin 1 (protein, UniProt Q13505 1-466)
chain: MLLGGPPRSPRSGTSPKGPWSSTGHVQFGKSPQTWPRRTRPRSPEPAAPSGVRGSTWTRRRDSPRRAGPTALSRYVGHLWMGRRPPSPEARGPVPRSSAASRARRSLASPGISPGPLTATIGGAVAGGGPRQGRAEAHKEVFPGQRVGKMAAPMELFCWSGGWGLPSVDLDSLAVLTYARFTGAPLKVHKISNPWQSPSGTLPALRTSHGEVISVPHKIITHLRKEKYNADYDLSARQGADTLAFMSLLEEKLLPVLVHTFWIDTKNYVEVTRKWYAEAMPFPLNFFLPGRMQRQYMERLQLLTGEHRPEDEEELEKELYREARECLTLLSQRLGSQKFFFGDAPASLDAFVFSYLALLLQAKLPSGKLQVHLRGLHNLCAYCTHILSLYFPWDGAEVPPQRQTPAGPETEEEPYRRRNQILSVLAGLAAMVGYALLSGIVSIQRATPARAPGTRTLGMAEEDEEE
- binding: binds
